# Primary screen of a compound library

The values are deposited in ChEMBL (CHEMBL3988442, “University of Dundee, Small-Polar-MMV Screening Library” (2021)).

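Viability assay of Plasmodium falciparum sporozoites; the read-out is not stated. The concentration is filed as 10 mM, unlikely as a test dose, so the dose is not known. Higher reads as lower viability (inferred: compounds with an IC50 in retests scored well above the rest). Strong results were mostly tested again. Of about 34,000 compounds tested this way, about 280 (0.84%) reached 50% or more in at least one test.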

The filed quantity is “Percent Effect” (%). How 0% and 100% were set is not recorded. Most values in the screen are low, and negative values occur. Compounds were drawn at random from those tested, without regard to their results. Two or more numbers in one place are separate tests of the same structure; such repeats can differ widely.

- CCc1nc(CN2CCCC(NCc3cnn(C(C)(C)C)c3)C2)no1 (configuration not stated) | 3.701%
- COc1ccc(Cl)cc1C(=O)NCCNc1cnccn1 | 11.94%
- COc1ccc(F)c(NCc2ccc(C(=O)N(C)C)[nH]2)c1 | 7.432%
- O=C(COCc1ccccc1Cl)N1CCN(c2ncccn2)CC1 | 3.259%
- O=S(=O)(CCCc1ccccc1)Cc1nnnn1C1CC1 | -3.886%
- CNC(=O)COc1cccc(CNC(=O)c2c(C)noc2C(C)C)c1 | 1.041%
- CC(C)(CNc1ccc2ccc(F)cc2n1)NS(C)(=O)=O | -5.486%
- O=C(NCCc1coc(-c2ccccc2)n1)NC1CC1 | 8.216%
- CC(CNC(=O)c1cccnc1Oc1cccnc1)N(C)C (configuration not stated) | -3.176%
- COc1ccc(C2OC(COc3ccccc3Br)=NN2C(C)=O)cc1 (configuration not stated) | 6.145%
- NC(=O)c1cc(C2CCCN(C(=O)CCc3ccsc3)C2)n[nH]1 (configuration not stated) | -14.06%
- COCCCN(C)c1cc(C(F)(F)F)nc(-c2cccnc2)n1 | -23.53%
- Cc1nc(COCc2cnc3n2CCN(C2CCC2)C3C)cs1.O=C(O)C(F)(F)F (configuration not stated) | -0.1082%
- Cc1cccc(-c2noc(CN3CCC(N4CCNC4=O)CC3)n2)c1 | 7.195%
- O=C(CN1CCC(c2ccccc2)C1)NC(=O)NCC(F)(F)F (configuration not stated) | -0.8937%
- O=C(O)C(F)(F)F.O=C(O)C(F)(F)F.O=C(O)C(F)(F)F.[H][C@@]12CN(CCOC)C[C@]1([H])[C@@H](OC)CCN2Cc1cccc(C)n1 | -2.152%
- O=C(O)COc1ccccc1CN1CCCC1c1cnccn1 (configuration not stated) | 4.541%
- COc1ccc(Br)c(C(=O)NCCNc2ccc(C(F)(F)F)cn2)c1 | -5.549%
- OC1CCN(Cc2c(-c3ccco3)[nH]c3ncccc23)CC1 | 13.05%
- Cc1nc(C)n(CC2CCCN(Cc3noc(C)n3)C2)n1 (configuration not stated) | 6.904%
- [H][C@]12CC[C@@H](N(C)c3ccc(C)nn3)[C@@]1([H])CN(C(=O)CC1CCOCC1)C2 | 2.31%
- COc1ccccc1OC1CCN(c2nc(N)nc3[nH]cnc23)CC1 | -3.432%
- CC(C)(C)OC(=O)NCCc1csc(N2CCCC2)n1 | -13.24%
- O=C(NC1CCN(c2ncccc2F)C1)c1cccc(-n2ccnn2)c1 (configuration not stated) | -17.86%
- Cc1nc2c(c(C)c1CC(=O)Nc1ccc(Cl)cc1)c(=O)[nH]n2C | 9.227%
- COc1ncccc1CNC(=O)N1CCCC1c1ccsc1 (configuration not stated) | 5.478%
- Cc1ccoc1C(=O)NC1CCN(Cc2cccc3ccccc23)CC1 | 18.24%
- COc1cccc(CNC2CCc3ccc(C)cc32)n1 (configuration not stated) | -3.183%
- CC(C)N1CCc2[nH]nc(C(=O)N3CCOCC3)c2C1.O=C(O)C(F)(F)F.O=C(O)C(F)(F)F | 11.46%
- Cn1c2c(c(=O)n1C)CN(C(=O)c1cccc(F)c1)CCC2 | -6.076%
- CN(C)CC1(O)CCN(C(=O)Cc2ccc3c(c2)CCCC3)C1 (configuration not stated) | 10.27%
- O=C(c1ccc2[nH]ccc2c1)N1CCn2cc(CN3CCCC3)nc2C1 | 7.474%
- Cc1nc(C(C)C)sc1C(=O)NS(=O)(=O)c1ccc(C#N)cc1 | 5.059%
- CCN1CCN(C)C(=O)C12CCN(Cc1csc(C)n1)CC2.O=C(O)C(F)(F)F | -0.2568%
- [H][C@@]12CS(=O)(=O)C[C@]1([H])N(Cc1cc(Cl)cc(Cl)c1)CCN2CC1CC1 | -10.94%
- O=C(O)C(F)(F)F.O=C(O)C(F)(F)F.O=C(O)C(F)(F)F.[H][C@]12C[C@@H](Cn3cccn3)N(c3nccs3)[C@@]1([H])CCN(CC1CC1)C2 | 7.799%
- COc1cccc(-n2c(C)cc(C(=O)NCCCC(N)=O)c2C)c1 | 3.188%
- Cc1ncsc1C(=O)NCCc1cccs1 | 4.558%
- O=C(O)C(F)(F)F.O=C(O)C(F)(F)F.[H][C@@]12OCCN(Cc3nccs3)[C@@]1([H])CC[C@@H]2OCc1ccncc1 | 5.754%
- Cc1nc(C2CCN(C(=O)CO)CC2)cc(N2CCOCC2)n1 | 1.559%
- c1cnn(CC2CCCN2Cc2ccc(-n3cccn3)cc2)c1 (configuration not stated) | 1.33%
- NCc1ccnc(Oc2ccccc2)c1 | 6.267%
- CC(=O)N1CC(=O)N(c2ccccc2)CC12CCN(Cc1ccoc1)C2.O=C(O)C(F)(F)F (configuration not stated) | -1.805%
- Cc1ccc(C)c(CS(=O)(=O)CC(=O)NC(C)c2ccc(F)cc2F)c1 (configuration not stated) | 9.878%
- NCC1(c2cccc(C(F)(F)F)c2)CCOCC1 | -5.411%
- CN(C)C(=O)CS(=O)(=O)Cc1cc(Cl)c2c(c1)OCO2 | 3.667%
- c1ccc(-c2nc(CN3CCCC(Cn4cncn4)C3)no2)cc1 (configuration not stated) | -14.08%
- CN(C(=O)c1cn(C)cn1)[C@@H]1CCC[C@@H](Oc2ccccc2)[C@@H]1O | 13.14%
- CC(=O)N1CCC2(CC1)C(=O)N(CC1CCN(C)CC1)c1ccccc12.O=C(O)C(F)(F)F | 1.313%
- Cc1cnn(CC2CN(Cc3nc(-c4ccsc4)no3)CCO2)c1 (configuration not stated) | -11.42%
- Cn1ccc(NC(=O)CN2CCN(C3CCCC3)C(=O)C2)n1 | 2.31%
- CS(=O)(=O)N1CCc2[nH]cnc2C12CCN(C(=O)c1cccnc1)CC2 | -9.882% and -13.36%
- CS(=O)(=O)NC(=O)c1nnn(-c2ccccc2)c1C1CC1 | -2.659%
- Cc1ccc(-c2cc(C(=O)NCCN3CCCS3(=O)=O)[nH]n2)cc1 | -0.5224%
- Cc1nc(C2CCCN(C(=O)c3ccc(OCC4CC4)nc3)C2)no1 (configuration not stated) | 4.454%
- Cn1cc(N2CC3(COCCN(Cc4ccccn4)C3)OCC2=O)cn1.O=C(O)C(F)(F)F (configuration not stated) | -11.19%
- O=C(O)C(F)(F)F.O=C1CC(c2ccncc2)C2(CCN(C(=O)c3cccs3)CC2)N1 (configuration not stated) | 4.714%
- Cc1cccc(N2CCC3(CCN(C(=O)c4cccnc4)CC3)C2)n1.O=C(O)C(F)(F)F.O=C(O)C(F)(F)F | -10.27%
- CC(C)c1cnc(CN2CCCC(c3cc(C(N)=O)[nH]n3)C2)o1 (configuration not stated) | 12.57%

Repeated from the top, 5 entries:

- CCc1nc(CN2CCCC(NCc3cnn(C(C)(C)C)c3)C2)no1 (configuration not stated) : 3.701%
- COc1ccc(Cl)cc1C(=O)NCCNc1cnccn1 : 11.94%
- COc1ccc(F)c(NCc2ccc(C(=O)N(C)C)[nH]2)c1 : 7.432%
- O=C(COCc1ccccc1Cl)N1CCN(c2ncccn2)CC1 : 3.259%
- O=S(=O)(CCCc1ccccc1)Cc1nnnn1C1CC1 : -3.886%